In patent US4880809A, “1,4-disubstituted piperazines (or homopiperazines) as platelet-activating factor antagonists” (Takeda Chemical Industries, Ltd., priority 1987, dated 1989):

Tested on: diabetic nephropathy
Experiment: Action Against Diabetic Nephropathy
Type: in vivo, Female KKAy mice
Details: 3 weeks, N 8
Procedure: Female KKAy mice of 10 weeks old were employed. Test animals were administered with the compound of Example 62 for three weeks at doses of 8 and 26 mg/kg/day in admixture with feedstuff. Then, urine was collected from these animals for 24 hours. Urine desalted (filtered urine) by means of a PD-10 column (Pharmacia) was employed to determine the total protein concentration in the urine by using a protein-assay kit (Bio-Rad). The amount ot albumin in the urine was calculated from the relative concentration of albumin to the total protein determined by means of electrophoresis.
Glucose and triglyceride in the plasma were determined by an enzyme method using the Ankol Chemistry System (Baker instruments).

COc1cc2c(cc1OC)CCCC(C(=O)N1CCN(C(=O)c3cc(OC)c(OC)c(OC)c3)CC1)=C2 [Example 62, 1-(2,3-dimethoxy-6,7-dihydro-5H-benzocyclohepten-8-ylcarbonyl)-4-(3,4,5-trimethoxybenzoyl)piperazine]
Body Weight (8 mg/kg/day p.o.): 44.8 g
Body Weight (26 mg/kg/day p.o.): 43.3 g
